These are yes or no findings as the source states them, for the method shown. In cells and extracts the contact can be indirect. Some entries that bind do so weakly or less than the wild type.
Molecular target: endogenous p53 of U2OS cells (human (endogenous in U2OS)) (UniProt P04637)
Test: co-IP; U2OS nuclear extracts precipitated with anti-p53 or anti-OKL38 antibody (normal mouse or rabbit IgG as control); blots for p53 and OKL38

binding: binds
B1: endogenous OKL38 of U2OS cells (protein, UniProt Q9UJX0 1-477)
chain: MSSSRKDHLGASSSEPLPVIIVGNGPSGICLSYLLSGYTPYTKPDAIHPHPLLQRKLTEAPGVSILDQDLDYLSEGLEGRSQSPVALLFDALLRPDTDFGGNMKSVLTWKHRKEHAIPHVVLGRNLPGGAWHSIEGSMVILSQGQWMGLPDLEVKDWMQKKRRGLRNSRATAGDIAHYYRDYVVKKGLGHNFVSGAVVTAVEWGTPDPSSCGAQDSSPLFQVSGFLTRNQAQQPFSLWARNVVLATGTFDSPARLGIPGEALPFIHHELSALEAATRVGAVTPASDPVLIIGAGLSAADAVLYARHYNIPVIHAFRRAVDDPGLVFNQLPKMLYPEYHKVHQMMREQSILSPSPYEGYRSLPRHQLLCFKEDCQAVFQDLEGVEKVFGVSLVLVLIGSHPDLSFLPGAGADFAVDPDQPLSAKRNPIDVDPFTYQSTRQEGLYAMGPLAGDNFVRFVQGGALAVASSLLRKETRKPP

— publication PMC3422280
